The chains behind the UniProt entries cited, without tags or fusion partners. Where a name states a change or a piece, a line headed by the entry shows the natural chain unless it says otherwise. Residues count along the entry.
UniProt Q8NBP7, residues 153-692: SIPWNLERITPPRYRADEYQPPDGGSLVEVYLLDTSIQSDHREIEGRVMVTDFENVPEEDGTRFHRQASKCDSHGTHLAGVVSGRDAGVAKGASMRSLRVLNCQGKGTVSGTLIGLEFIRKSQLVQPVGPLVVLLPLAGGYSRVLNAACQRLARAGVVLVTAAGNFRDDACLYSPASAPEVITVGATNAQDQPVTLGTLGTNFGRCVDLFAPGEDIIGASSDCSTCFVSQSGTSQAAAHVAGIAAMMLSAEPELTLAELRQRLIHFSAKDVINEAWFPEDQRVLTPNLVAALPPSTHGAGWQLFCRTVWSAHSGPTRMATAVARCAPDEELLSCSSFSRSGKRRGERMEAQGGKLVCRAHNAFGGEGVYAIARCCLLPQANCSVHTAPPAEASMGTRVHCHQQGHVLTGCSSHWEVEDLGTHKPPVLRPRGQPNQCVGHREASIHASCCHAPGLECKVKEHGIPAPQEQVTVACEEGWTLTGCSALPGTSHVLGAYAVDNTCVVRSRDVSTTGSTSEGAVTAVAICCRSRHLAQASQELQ

According to PMC12127886, “Mapping Hsp104 interactions using cross‐linking mass spectrometry” (FEBS Open Bio, 2025):

Target: Thermochaetoides thermophila TtHsp104 full length (Thermochaetoides thermophila)
Experiment: cross-linking; co-purified Hsp104fl:PCSK9 complex, 0.3 mg/mL in 20 mM HEPES-KOH 7.57, 100 mM KCl, 2 mM MgCl2, 2 mM ATP, 4 mM DTT; DMTMM or ADH/DMTMM; SDS/PAGE and LC-MS/MS (xQuest), Id-score cutoff 15; DSS data excluded; both purified

PCSK9ΔN (153–692) (from UniProt Q8NBP7 153-692) (domain or fragment)
binding: binds

These are yes or no findings as the source states them, for the method shown. Binding seen in cells or lysates may run through a third protein. Binding can be weak; no strength is given.
